According to paper PMC11574178:
No constants are given. Whether binding was seen depends on the method and setting. In cells and extracts the contact can be indirect. Some entries that bind do so weakly or less than the wild type.

Amino acid sequences for entries named in this document (tags omitted).
UniProt Q9WTL8: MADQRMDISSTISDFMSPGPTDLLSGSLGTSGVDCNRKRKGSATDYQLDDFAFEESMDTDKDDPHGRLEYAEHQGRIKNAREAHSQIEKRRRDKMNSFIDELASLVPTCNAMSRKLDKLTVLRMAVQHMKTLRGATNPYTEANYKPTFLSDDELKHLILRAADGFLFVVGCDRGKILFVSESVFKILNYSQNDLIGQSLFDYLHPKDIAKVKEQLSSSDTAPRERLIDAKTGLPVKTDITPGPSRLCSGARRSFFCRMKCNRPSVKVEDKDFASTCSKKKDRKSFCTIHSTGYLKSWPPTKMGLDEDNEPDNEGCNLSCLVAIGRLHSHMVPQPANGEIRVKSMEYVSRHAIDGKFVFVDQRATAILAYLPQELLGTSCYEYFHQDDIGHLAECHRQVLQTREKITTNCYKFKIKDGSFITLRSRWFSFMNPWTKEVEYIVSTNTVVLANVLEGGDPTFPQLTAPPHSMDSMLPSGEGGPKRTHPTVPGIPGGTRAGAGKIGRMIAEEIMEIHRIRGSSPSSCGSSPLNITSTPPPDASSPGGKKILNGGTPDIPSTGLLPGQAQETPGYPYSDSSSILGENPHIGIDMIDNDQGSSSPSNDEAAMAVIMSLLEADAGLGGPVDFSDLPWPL
UniProt Q9D832: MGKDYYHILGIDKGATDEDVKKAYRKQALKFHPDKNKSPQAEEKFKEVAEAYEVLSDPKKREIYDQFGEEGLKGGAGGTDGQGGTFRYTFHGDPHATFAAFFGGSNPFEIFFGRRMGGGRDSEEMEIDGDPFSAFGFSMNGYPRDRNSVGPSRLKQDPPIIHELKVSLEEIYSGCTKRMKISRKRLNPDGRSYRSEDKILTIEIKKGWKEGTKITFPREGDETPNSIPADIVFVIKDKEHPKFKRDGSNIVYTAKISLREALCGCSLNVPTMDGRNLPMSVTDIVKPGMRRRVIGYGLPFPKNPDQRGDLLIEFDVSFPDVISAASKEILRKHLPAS

Assays:
[1] = target: T1, mitochondrial Na+/Ca2+/Li+ exchanger (NCLX), endogenous (mouse (endogenous in hippocampal neurons)) (UniProt Q925Q3); test: co-IP; reciprocal immunoprecipitation of endogenous proteins from hippocampal neuron lysate; Pierce Magnetic IP/Co-IP kit, antibody overnight at 4 °C, protein A/G magnetic beads; normal IgG as control
T1 sequence: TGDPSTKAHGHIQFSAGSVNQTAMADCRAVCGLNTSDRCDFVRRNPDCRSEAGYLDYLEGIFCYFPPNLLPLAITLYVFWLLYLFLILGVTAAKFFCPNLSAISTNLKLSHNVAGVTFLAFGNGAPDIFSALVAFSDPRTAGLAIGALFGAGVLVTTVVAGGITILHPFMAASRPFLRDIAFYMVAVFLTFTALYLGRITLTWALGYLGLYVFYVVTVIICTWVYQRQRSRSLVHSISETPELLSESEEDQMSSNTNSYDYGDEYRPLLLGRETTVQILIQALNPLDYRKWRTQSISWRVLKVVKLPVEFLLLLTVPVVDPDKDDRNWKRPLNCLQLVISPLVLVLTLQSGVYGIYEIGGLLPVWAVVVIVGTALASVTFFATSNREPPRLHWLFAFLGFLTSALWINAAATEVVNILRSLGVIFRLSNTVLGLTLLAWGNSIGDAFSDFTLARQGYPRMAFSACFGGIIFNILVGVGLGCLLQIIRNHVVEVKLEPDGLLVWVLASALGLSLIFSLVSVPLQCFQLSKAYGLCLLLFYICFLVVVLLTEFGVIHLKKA

[2] = target: Brain and Muscle ARNT-Like 1 (Bmal1), endogenous (mouse (endogenous in primary hippocampal neurons and hippocampal CA1 neurons)) (UniProt Q9WTL8); test: as above
[3] = target: FLAG-tagged wild-type Bmal1 expressed in HEK293T cells (UniProt Q9WTL8); test: co-IP; HEK293T cells transfected with Bmal1 (wild type or mutants) alone or with Clock, with or without high glucose and OGT inhibitors; immunoprecipitation with anti-FLAG antibody, blot for Clock
[4] = target: Wild-type Bmal1 re-expressed in primary hippocampal neurons with endogenous Bmal1 stably silenced (UniProt Q9WTL8); test: co-IP; primary hippocampal neurons with endogenous Bmal1 stably silenced and expressing WT or S424A Bmal1, normal or high glucose; lysates precipitated with Bmal1 antibodies, blot for Clock
[5] = target: Brain and Muscle ARNT-Like 1 (Bmal1), endogenous (mouse (endogenous in primary hippocampal neurons and hippocampal CA1 neurons)) (UniProt Q9WTL8); test: co-IP; hippocampal CA1 neurons isolated from db/m, db/db, control or STZ mice treated with vehicle, S424A-pe or S424-pe (5 mg/kg); lysates precipitated with Bmal1 antibodies, blot for Clock
[6] = target: Brain and Muscle ARNT-Like 1 (Bmal1), endogenous (mouse (endogenous in primary hippocampal neurons and hippocampal CA1 neurons)) (UniProt Q9WTL8); test: co-IP; endogenous Bmal1 precipitated from lysate of mouse primary hippocampal neurons, blot for Clock; cells in normal glucose (5.5 mmol/L) or high glucose (25 mmol/L) with vehicle or OSMI-1 (20 μM), or with the peptides S424-pe / S424A-pe

In the case of “DnaJ homolog subfamily B member 4 (Dnajb4), endogenous (from UniProt Q9D832 1-337)”, the binding [1] is reported as “binds”.

B1: O-GlcNAc transferase (OGT), endogenous (enzyme, UniProt Q8CGY8 1-1046)
chain: MASSVGNVADSTEPTKRMLSFQGLAELAHREYQAGDFEAAERHCMQLWRQEPDNTGVLLLLSSIHFQCRRLDRSAHFSTLAIKQNPLLAEAYSNLGNVYKERGQLQEAIEHYRHALRLKPDFIDGYINLAAALVAAGDMEGAVQAYVSALQYNPDLYCVRSDLGNLLKALGRLEEAKACYLKAIETQPNFAVAWSNLGCVFNAQGEIWLAIHHFEKAVTLDPNFLDAYINLGNVLKEARIFDRAVAAYLRALSLSPNHAVVHGNLACVYYEQGLIDLAIDTYRRAIELQPHFPDAYCNLANALKEKGSVAEAEDCYNTALRLCPTHADSLNNLANIKREQGNIEEAVRLYRKALEVFPEFAAAHSNLASVLQQQGKLQEALMHYKEAIRISPTFADAYSNMGNTLKEMQDVQGALQCYTRAIQINPAFADAHSNLASIHKDSGNIPEAIASYRTALKLKPDFPDAYCNLAHCLQIVCDWTDYDERMKKLVSIVAEQLEKNRLPSVHPHHSMLYPLSHGFRKAIAERHGNLCLDKINVLHKPPYEHPKDLKLSDGRLRVGYVSSDFGNHPTSHLMQSIPGMHNPDKFEVFCYALSPDDGTNFRVKVMAEANHFIDLSQIPCNGKAADRIHQDGIHILVNMNGYTKGARNELFALRPAPIQAMWLGYPGTSGALFMDYIITDQETSPAEVAEQYSEKLAYMPHTFFIGDHANMFPHLKKKAVIDFKSNGHIYDNRIVLNGIDLKAFLDSLPDVKIVKMKCPDGGDNPDSSNTALNMPVIPMNTIAEAVIEMINRGQIQITINGFSISNGLATTQINNKAATGEEVPRTIIVTTRSQYGLPEDAIVYCNFNQLYKIDPSTLQMWANILKRVPNSVLWLLRFPAVGEPNIQQYAQNMGLPQNRIIFSPVAPKEEHVRRGQLADVCLDTPLCNGHTTGMDVLWAGTPMVTMPGETLASRVAASQLTCLGCLELIAKSRQEYEDIAVKLGTDLEYLKKIRGKVWKQRISSPLFNTKQYTMELERLYLQMWEHYAAGNKPDHMIKPVEVTESA
B1 was tested, and the binding [2] was “binds”.

B2: Clock expressed in HEK293T cells (protein, UniProt O08785 1-855)
chain: MVFTVSCSKMSSIVDRDDSSIFDGLVEEDDKDKAKRVSRNKSEKKRRDQFNVLIKELGSMLPGNARKMDKSTVLQKSIDFLRKHKETTAQSDASEIRQDWKPTFLSNEEFTQLMLEALDGFFLAIMTDGSIIYVSESVTSLLEHLPSDLVDQSIFNFIPEGEHSEVYKILSTHLLESDSLTPEYLKSKNQLEFCCHMLRGTIDPKEPSTYEYVRFIGNFKSLTSVSTSTHNGFEGTIQRTHRPSYEDRVCFVATVRLATPQFIKEMCTVEEPNEEFTSRHSLEWKFLFLDHRAPPIIGYLPFEVLGTSGYDYYHVDDLENLAKCHEHLMQYGKGKSCYYRFLTKGQQWIWLQTHYYITYHQWNSRPEFIVCTHTVVSYAEVRAERRRELGIEESLPETAADKSQDSGSDNRINTVSLKEALERFDHSPTPSASSRSSRKSSHTAVSDPSSTPTKIPTDTSTPPRQHLPAHEKMTQRRSSFSSQSINSQSVGPSLTQPAMSQAANLPIPQGMSQFQFSAQLGAMQHLKDQLEQRTRMIEANIHRQQEELRKIQEQLQMVHGQGLQMFLQQSNPGLNFGSVQLSSGNSNIQQLTPVNMQGQVVPANQVQSGHISTGQHMIQQQTLQSTSTQQSQQSVMSGHSQQTSLPSQTPSTLTAPLYNTMVISQPAAGSMVQIPSSMPQNSTQSATVTTFTQDRQIRFSQGQQLVTKLVTAPVACGAVMVPSTMLMGQVVTAYPTFATQQQQAQTLSVTQQQQQQQQQPPQQQQQQQQSSQEQQLPSVQQPAQAQLGQPPQQFLQTSRLLHGNPSTQLILSAAFPLQQSTFPPSHHQQHQPQQQQQLPRHRTDSLTDPSKVQPQ
For B2, the binding [3] was “binds”.

B3: Circadian Locomoter Output Cycles Kaput (Clock), endogenous (protein, UniProt O08785 1-855)
chain: MVFTVSCSKMSSIVDRDDSSIFDGLVEEDDKDKAKRVSRNKSEKKRRDQFNVLIKELGSMLPGNARKMDKSTVLQKSIDFLRKHKETTAQSDASEIRQDWKPTFLSNEEFTQLMLEALDGFFLAIMTDGSIIYVSESVTSLLEHLPSDLVDQSIFNFIPEGEHSEVYKILSTHLLESDSLTPEYLKSKNQLEFCCHMLRGTIDPKEPSTYEYVRFIGNFKSLTSVSTSTHNGFEGTIQRTHRPSYEDRVCFVATVRLATPQFIKEMCTVEEPNEEFTSRHSLEWKFLFLDHRAPPIIGYLPFEVLGTSGYDYYHVDDLENLAKCHEHLMQYGKGKSCYYRFLTKGQQWIWLQTHYYITYHQWNSRPEFIVCTHTVVSYAEVRAERRRELGIEESLPETAADKSQDSGSDNRINTVSLKEALERFDHSPTPSASSRSSRKSSHTAVSDPSSTPTKIPTDTSTPPRQHLPAHEKMTQRRSSFSSQSINSQSVGPSLTQPAMSQAANLPIPQGMSQFQFSAQLGAMQHLKDQLEQRTRMIEANIHRQQEELRKIQEQLQMVHGQGLQMFLQQSNPGLNFGSVQLSSGNSNIQQLTPVNMQGQVVPANQVQSGHISTGQHMIQQQTLQSTSTQQSQQSVMSGHSQQTSLPSQTPSTLTAPLYNTMVISQPAAGSMVQIPSSMPQNSTQSATVTTFTQDRQIRFSQGQQLVTKLVTAPVACGAVMVPSTMLMGQVVTAYPTFATQQQQAQTLSVTQQQQQQQQQPPQQQQQQQQSSQEQQLPSVQQPAQAQLGQPPQQFLQTSRLLHGNPSTQLILSAAFPLQQSTFPPSHHQQHQPQQQQQLPRHRTDSLTDPSKVQPQ
In the case of B3, the binding [4] is reported as “binds”, the binding [5] is reported as “binds” and the binding [6] is reported as “binds”.
